From US20150051171A1, “TETRAZOLINONE COMPOUNDS AND ITS USE AS PESTICIDES” (SUMITOMO CHEMICAL COMPANY, LIMITED, priority 2012, published 2015)
Some entries share one result that the patent states for a list of compounds.

Key:
[1] = system: barley scald fungi (Rhynchosporium secalis); assay: Barley scald / leaf blotch control, foliar spray before inoculation (Test Examples 22-23); assay type: in vivo; settings: barley (cv; Mikamo Golden), inoculated 2 days after spraying
[2] = system: powdery mildew fungi (Sphaerotheca fuliginea); assay: Cucumber powdery mildew control, foliar spray before inoculation (Test Examples 17-19); assay type: in vivo; settings: cucumber (cv; Sagamihanjiro), observed 8 days after inoculation
[3] = system: wheat leaf blotch fungi (Septoria tritici); assay: Wheat leaf blotch control on wheat, foliar spray before inoculation (Test Examples 13-15); assay type: in vivo; settings: wheat (cv; Apogee), inoculated 4 days after spraying
[4] = system: kidney bean sclerotinia rot fungi (Sclerotinia sclerotiorum); assay: Kidney bean sclerotinia rot control, foliar spray before inoculation (Test Examples 11-12); settings: kidney bean (cv; Nagauzurasaitou), observed 4 days after inoculation

Question: Which results are given for `Cn1nnn(-c2cccc(F)c2COc2ccn(-c3ccc(Cl)cc3)n2)c1=O` [Present compound 1, 1-(2-{[1-(4-chlorophenyl)-1H-pyrazole-3-yl]oxymethyl}-3-fluorophenyl)-4-methyl-1,4-dihydrotetrazole-5-one]?
Answer: lesion area compared to the lesion area in untreated plants ([1]; 200 ppm foliar spray): ≤ 30%; lesion area compared to the lesion area in untreated plants ([2]; 200 ppm foliar spray): ≤ 30%

Question: Which “lesion area compared to the lesion area in untreated plants” value (shortened to “lesion area compared to the lesion area”) ([2]; 200 ppm foliar spray) does the source give for `Cn1nnn(-c2cccc(Cl)c2COc2ccn(-c3ccc(Cl)cc3)n2)c1=O` [Present compound 3, 1-(2-{[1-(4-chlorophenyl)-1H-pyrazole-3-yl]oxymethyl}-3-chlorophenyl)-4-methyl-1,4-dihydrotetrazole-5-one] here?
Answer: Its value is ≤ 30%.

Question: How did the “lesion area compared to the lesion area” value ([1]; 200 ppm foliar spray) turn out when `Cc1ccc(-n2ccc(OCc3c(Cl)cccc3-n3nnn(C)c3=O)n2)cc1` [Present compound 4, 1-(2-{[1-(4-methylphenyl)-1H-pyrazole-3-yl]oxymethyl}-3-chlorophenyl)-4-methyl-1,4-dihydrotetrazole-5-one] was run?
Answer: Its value is ≤ 30%.

Question: `Cn1nnn(-c2cccc(Br)c2COc2ccn(-c3ccc(Cl)cc3)n2)c1=O` [Present compound 7, 1-(2-{[1-(4-chlorophenyl)-1H-pyrazole-3-yl]oxymethyl}-3-bromophenyl)-4-methyl-1,4-dihydrotetrazole-5-one] was tested. Which “lesion area compared to the lesion area” value ([2]; 200 ppm foliar spray) did it give?
Answer: The value was ≤ 30%.

Question: What about the “lesion area compared to the lesion area” value ([3]; 200 ppm foliar spray) of the same compound?
Answer: The value was ≤ 30%.

Question: How did the “lesion area compared to the lesion area” value ([3]; 200 ppm foliar spray) turn out when `Cn1nnn(-c2cccc(I)c2COc2ccn(-c3ccc(Cl)cc3)n2)c1=O` [Present compound 9, 1-(2-{[1-(4-chlorophenyl)-1H-pyrazole-3-yl]oxymethyl}-3-iodophenyl)-4-methyl-1,4-dihydrotetrazole-5-one] was run?
Answer: Its value is ≤ 30%.

Question: `Cc1cccc(-n2nnn(C)c2=O)c1COc1ccn(-c2ccccc2)n1` [Present compound 10, 1-(2-{[1-phenyl-1H-pyrazole-3-yl]oxymethyl}-3-methylphenyl)-4-methyl-1,4-dihydrotetrazole-5-one] was tested. Which “lesion area compared to the lesion area” value ([1]; 200 ppm foliar spray) did it give?
Answer: Its value is ≤ 30%.

Question: How did the “lesion area compared to the lesion area” value ([1]; 50 ppm foliar spray) turn out when `Cc1cccc(-n2nnn(C)c2=O)c1COc1ccn(-c2ccc(F)cc2)n1` [Present compound 11, 1-(2-{[1-(4-fluorophenyl)-1H-pyrazole-3-yl]oxymethyl}-3-methylphenyl)-4-methyl-1,4-dihydrotetrazole-5-one] was run?
Answer: Its value is ≤ 10%.

Question: What about the “lesion area compared to the lesion area” value ([2]; 200 ppm foliar spray) of the same compound?
Answer: The value was ≤ 30%.

Question: How did the “lesion area compared to the lesion area” value ([2]; 500 ppm foliar spray) turn out when `COc1ccc(-n2ccc(OCc3c(C)cccc3-n3nnn(C)c3=O)n2)cc1` [Present compound 14, 1-(2-{[1-(4-methoxyphenyl)-1H-pyrazole-3-yl]oxymethyl}-3-methylphenyl)-4-methyl-1,4-dihydrotetrazole-5-one] was run?
Answer: The value was ≤ 30%.

Question: How did the “lesion area compared to the lesion area” value ([1]; 50 ppm foliar spray) turn out when `CSc1ccc(-n2ccc(OCc3c(C)cccc3-n3nnn(C)c3=O)n2)cc1` [Present compound 19, 1-(2-{[1-(4-methylthiophenyl)-1H-pyrazole-3-yl]oxymethyl}-3-methylphenyl)-4-methyl-1,4-dihydrotetrazole-5-one] was run?
Answer: Its value is ≤ 10%.

Question: With `COc1ccc(-n2ccc(OCc3c(C)cccc3-n3nnn(C)c3=O)n2)cc1F` [Present compound 20, 1-(2-{[1-(4-methoxy-3-fluorophenyl)-1H-pyrazole-3-yl]oxymethyl}-3-methylphenyl)-4-methyl-1,4-dihydrotetrazole-5-one] as the compound, how does the “lesion area compared to the lesion area” value ([1]; 200 ppm foliar spray) read?
Answer: Its value is ≤ 30%.

Question: With `Cc1ccc(-n2ccc(OCc3c(C)cccc3-n3nnn(C)c3=O)n2)cc1F` [Present compound 22, 1-(2-{[1-(4-methyl-3-fluorophenyl)-1H-pyrazole-3-yl]oxymethyl}-3-methylphenyl)-4-methyl-1,4-dihydrotetrazole-5-one] as the compound, how does the “lesion area compared to the lesion area” value ([1]; 200 ppm foliar spray) read?
Answer: The value was ≤ 30%.

Question: And the “lesion area compared to the lesion area” value ([2]; 200 ppm foliar spray)?
Answer: Its value is ≤ 30%.

Question: What about the “lesion area compared to the lesion area” value ([4]; 200 ppm foliar spray) of the same compound?
Answer: The value was ≤ 30%.

Question: Which results are given for `COc1cccc(-n2nnn(C)c2=O)c1COc1ccn(-c2ccc(Cl)cc2)n1` [Present compound 26, 1-(2-{[1-(4-chlorophenyl)-1H-pyrazole-3-yl]oxymethyl}-3-methoxyphenyl)-4-methyl-1,4-dihydrotetrazole-5-one]?
Answer: lesion area compared to the lesion area in untreated plants ([1]; 200 ppm foliar spray): ≤ 30%; lesion area compared to the lesion area in untreated plants ([2]; 200 ppm foliar spray): ≤ 30%

Question: With `Cn1nnn(-c2cccc(C#N)c2COc2ccn(-c3ccc(Cl)cc3)n2)c1=O` [Present compound 29, 1-(2-{[1-(4-chlorophenyl)-1H-pyrazole-3-yl]oxymethyl}-3-cyanophenyl)-4-methyl-1,4-dihydrotetrazole-5-one] as the compound, how does the “lesion area compared to the lesion area” value ([3]; 200 ppm foliar spray) read?
Answer: The value was ≤ 30%.

Question: With `Cn1nnn(-c2cccc(C(F)(F)F)c2COc2ccn(-c3ccc(Cl)cc3)n2)c1=O` [Present compound 32, 1-(2-{[1-(4-chlorophenyl)-1H-pyrazole-3-yl]oxymethyl}-3-trifluoromethylphenyl)-4-methyl-1,4-dihydrotetrazole-5-one] as the compound, how does the “lesion area compared to the lesion area” value ([3]; 500 ppm foliar spray) read?
Answer: Its value is ≤ 30%.

Question: Which results are given for `CCCc1cccc(-n2nnn(C)c2=O)c1COc1ccn(-c2ccc(Cl)cc2)n1` [Present compound 36]?
Answer: lesion area compared to the lesion area in untreated plants ([1]; 200 ppm foliar spray): ≤ 30%; lesion area compared to the lesion area in untreated plants ([3]; 200 ppm foliar spray): ≤ 30%

Question: For `CC(C)c1cccc(-n2nnn(C)c2=O)c1COc1ccn(-c2ccc(Cl)cc2)n1` [Present compound 37, 1-(2-{[1-(4-chlorophenyl)-1H-pyrazole-3-yl]oxymethyl}-3-(1-methylethyl)phenyl)-4-methyl-1,4-dihydrotetrazole-5-one], which “lesion area compared to the lesion area” value ([3]; 200 ppm foliar spray) is on record?
Answer: The value was ≤ 30%.

Question: Which “lesion area compared to the lesion area” value ([1]; 200 ppm foliar spray) does the source give for `C=CCc1cccc(-n2nnn(C)c2=O)c1COc1ccn(-c2ccc(Cl)cc2)n1` [Present compound 40] here?
Answer: The value was ≤ 30%.

Question: `Cc1cccc(-n2nnn(C)c2=O)c1COc1ccn(-c2ccc(Cl)c(F)c2)n1` [Present compound 53] was tested. Which “lesion area compared to the lesion area” value ([2]; 200 ppm foliar spray) did it give?
Answer: The value was ≤ 30%.

Question: And the “lesion area compared to the lesion area” value ([3]; 200 ppm foliar spray)?
Answer: The value was ≤ 30%.

Question: With `CCc1cccc(-n2nnn(C)c2=O)c1COc1ccn(-c2ccc(F)cc2)n1` [Present compound 54, 1-(2-{[1-(4-fluorophenyl)-1H-pyrazole-3-yl]oxymethyl}-3-ethylphenyl)-4-methyl-1,4-dihydrotetrazole-5-one] as the compound, how does the “lesion area compared to the lesion area” value ([4]; 500 ppm foliar spray) read?
Answer: Its value is ≤ 30%.

Question: `Cn1nnn(-c2cccc(C3CC3)c2COc2ccn(-c3ccc(Br)cc3)n2)c1=O` [Present compound 56, 1-(2-{[1-(4-bromophenyl)-1H-pyrazole-3-yl]oxymethyl}-3-cyclopropylphenyl)-4-methyl-1,4-dihydrotetrazole-5-one] was tested. Which “lesion area compared to the lesion area” value ([4]; 500 ppm foliar spray) did it give?
Answer: Its value is ≤ 30%.

Question: Which “lesion area compared to the lesion area” value ([4]; 500 ppm foliar spray) does the source give for `CSc1cccc(-n2ccc(OCc3c(C)cccc3-n3nnn(C)c3=O)n2)c1` [Present compound 57, 1-(2-{[1-(3-methylthiophenyl)-1H-pyrazole-3-yl]oxymethyl}-3-methylphenyl)-4-methyl-1,4-dihydrotetrazole-5-one] here?
Answer: The value was ≤ 30%.

Question: With `COc1ccc(-n2ccc(OCc3c(C4CC4)cccc3-n3nnn(C)c3=O)n2)cc1` [Present compound 59, 1-(2-{[1-(4-methoxyphenyl)-1H-pyrazole-3-yl]oxymethyl}-3-cyclopropylphenyl)-4-methyl-1,4-dihydrotetrazole-5-one] as the compound, how does the “lesion area compared to the lesion area” value ([4]; 500 ppm foliar spray) read?
Answer: The value was ≤ 30%.

Question: With `Cc1ccc(-n2ccc(OCc3c(C4CC4)cccc3-n3nnn(C)c3=O)n2)cc1` [Present compound 60, 1-(2-{[1-(4-methylphenyl)-1H-pyrazole-3-yl]oxymethyl}-3-cyclopropylphenyl)-4-methyl-1,4-dihydrotetrazole-5-one] as the compound, how does the “lesion area compared to the lesion area” value ([4]; 500 ppm foliar spray) read?
Answer: The value was ≤ 30%.

Question: For `CCOc1cccc(-n2nnn(C)c2=O)c1COc1ccn(-c2ccc(Br)cc2)n1` [Present compound 69, 1-(2-{[1-(4-bromophenyl)-1H-pyrazole-3-yl]oxymethyl}-3-ethoxyphenyl)-4-methyl-1,4-dihydrotetrazole-5-one], which “lesion area compared to the lesion area” value ([3]; 200 ppm foliar spray) is on record?
Answer: Its value is ≤ 30%.

Question: Which “lesion area compared to the lesion area” value ([1]; 50 ppm foliar spray) does the source give for `CCOc1cccc(-n2nnn(C)c2=O)c1COc1ccn(-c2ccccc2)n1` [Present compound 70, 1-{2-[(1-phenyl-1H-pyrazole-3-yl)oxymethyl]-3-ethoxyphenyl}-4-methyl-1,4-dihydrotetrazole-5-one] here?
Answer: The value was ≤ 10%.

Question: And the “lesion area compared to the lesion area” value ([4]; 500 ppm foliar spray)?
Answer: Its value is ≤ 30%.

Question: For `CSc1cccc(-n2nnn(C)c2=O)c1COc1ccn(-c2ccc(Cl)cc2)n1` [Present compound 71, 1-(2-{[1-(4-chlorophenyl)-1H-pyrazole-3-yl]oxymethyl}-3-methylthiophenyl)-4-methyl-1,4-dihydrotetrazole-5-one], which “lesion area compared to the lesion area” value ([2]; 500 ppm foliar spray) is on record?
Answer: The value was ≤ 30%.

Question: Which “lesion area compared to the lesion area” value ([4]; 200 ppm foliar spray) does the source give for `Cc1ccccc1-n1ccc(OCc2c(C)cccc2-n2nnn(C)c2=O)n1` [Present compound 77, 1-(2-{[1-(2-methylphenyl)-1H-pyrazole-3-yl]oxymethyl}-3-methylphenyl)-4-methyl-1,4-dihydrotetrazole-5-one] here?
Answer: Its value is ≤ 30%.

Question: Which “lesion area compared to the lesion area” value ([3]; 200 ppm foliar spray) does the source give for `Cc1cccc(-n2nnn(C)c2=O)c1COc1ccn(-c2ccccc2Br)n1` [Present compound 79, 1-(2-{[1-(2-bromophenyl)-1H-pyrazole-3-yl]oxymethyl}-3-methylphenyl)-4-methyl-1,4-dihydrotetrazole-5-one] here?
Answer: The value was ≤ 30%.

Question: `Cc1cccc(-n2nnn(C)c2=O)c1COc1ccn(-c2cccc(F)c2)n1` [Present compound 80, 1-(2-{[1-(3-fluorophenyl)-1H-pyrazole-3-yl]oxymethyl}-3-methylphenyl)-4-methyl-1,4-dihydrotetrazole-5-one] was tested. Which “lesion area compared to the lesion area” value ([3]; 200 ppm foliar spray) did it give?
Answer: Its value is ≤ 30%.

Question: With `COc1ccccc1-n1ccc(OCc2c(OC)cccc2-n2nnn(C)c2=O)n1` [Present compound 87, 1-(2-{[1-(2-methoxyphenyl)-1H-pyrazole-3-yl]oxymethyl}-3-methoxyphenyl)-4-methyl-1,4-dihydrotetrazole-5-one] as the compound, how does the “lesion area compared to the lesion area” value ([3]; 200 ppm foliar spray) read?
Answer: The value was ≤ 30%.
